Measured values from article PMC11091212.
No constants are given. Whether binding was seen depends on the method and setting.

Sequences of proteins named here, by UniProt entry; tags and fusion partners are left off. A change or cut given only in a name is not applied to a line headed by its entry. A line that says so, or that is headed by a name, gives the form on record, which may keep a tag or linker. Residues count along the entry.
MFAP4_(C34S) (P55083, form named): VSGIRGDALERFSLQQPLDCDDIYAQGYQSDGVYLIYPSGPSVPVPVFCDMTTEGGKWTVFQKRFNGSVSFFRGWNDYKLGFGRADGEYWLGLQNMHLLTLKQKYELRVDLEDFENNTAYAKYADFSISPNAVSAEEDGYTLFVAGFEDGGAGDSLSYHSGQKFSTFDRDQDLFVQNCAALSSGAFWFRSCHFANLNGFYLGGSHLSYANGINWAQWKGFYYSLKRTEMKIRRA
UniProt Q9UBX5, residues 24-448: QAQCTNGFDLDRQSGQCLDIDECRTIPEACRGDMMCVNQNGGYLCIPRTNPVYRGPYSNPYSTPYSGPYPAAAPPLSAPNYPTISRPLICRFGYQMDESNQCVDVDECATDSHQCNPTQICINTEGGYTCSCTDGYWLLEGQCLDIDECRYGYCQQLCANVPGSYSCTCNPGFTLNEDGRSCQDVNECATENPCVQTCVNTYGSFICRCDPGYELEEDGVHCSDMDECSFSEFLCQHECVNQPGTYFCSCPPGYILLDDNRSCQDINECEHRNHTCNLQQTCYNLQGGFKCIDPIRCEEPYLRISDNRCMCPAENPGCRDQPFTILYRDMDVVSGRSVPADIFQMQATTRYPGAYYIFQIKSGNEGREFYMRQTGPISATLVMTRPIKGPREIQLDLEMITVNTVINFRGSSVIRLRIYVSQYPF

How the values were obtained:
MFAP4_(C34S) (human) [1] = target: MFAP4_(C34S) (human) (UniProt P55083); experiment: SPR; Ca2+-depleted form (tetramer): MFAP4 or MFAP4_(C34S) treated with 5 mM EDTA, dialysed against TBS, amine-coupled on CM5; analytes dialysed against TBS, 5-100 µg/mL, running buffer TBS without Ca2+; both purified
MFAP4_(C34S) (human) [2] = target: MFAP4_(C34S) (human) (UniProt P55083); experiment: SPR; Ca2+ form (octamer): MFAP4 or MFAP4_(C34S) amine-coupled on CM5 (Biacore X), elastogenic proteins as analytes 5-100 µg/mL in TBS/Ca2+ (2 mM CaCl2); 1:1 Langmuir fit, KD is the average over five concentrations; both purified

binding (MFAP4_(C34S) (human) [1]): no binding (tested: 100 µg/mL)
binding (MFAP4_(C34S) (human) [2]): no binding (tested: 100 µg/mL)
Substance: fibulin-5 (from UniProt Q9UBX5 24-448)
